{
  "source": "patent US20140121216A1",
  "about": "“INDOLEAMINE DERIVATIVES FOR THE TREATMENT OF CENTRAL NERVOUS SYSTEM DISEASES” (Adamed Sp. z o.o., priority 2011, published 2014)",
  "tested_on": "α1 adrenergic receptors (rat cerebral cortex)",
  "assay": "Binding assay, α1 adrenergic receptor ([3H]prazosin)",
  "settings": "compound 1×10^−6 M",
  "method": "The specific ligand binding to the receptors is defined as the difference between the total binding and the non-specific binding determined in the presence of an excess of unlabelled ligand.\nThe inhibition constants (Ki) were calculated using the Cheng Prusoff equation (Ki=IC50/(1+(L/KD)), where L=concentration of radioligand in the assay, and KD=affinity of the radioligand for the receptor). A Scatchard plot is used to determine the Kd. The IC50 values (concentration causing a half-maximal inhibition of control specific binding) and Hill coefficients (nH) were determined by non-linear regression analysis of the competition curves generated with mean replicate values using Hill equation curve fitting (Y=D+[(A−D)/(1+(C/C50)^nH)], where Y=specific binding, D=minimum specific binding, A=maximum specific binding, C=compound concentration, C50=IC50, and nH=slope factor). This analysis was performed using a software developed at Cerep (Hill software) and validated by comparison with data generated by the commercial software SigmaPlot® 4.0 for Windows® (©1997 by SPSS Inc.).\nExperimental conditions for tests are given in Table 7, and results of tests for representative compounds are given in Tables 8a and 8b (α1 receptors) and in Tables 9a and 9b (α2C receptors).",
  "note": "At least one structure is not confirmed: it was looked up by name or label, or the drawing left a doubt.",
  "data": [
    {"smiles": "O=C1CCc2ccc(OCCCCN3CCN(c4cccc5c4ccn5Cc4cccc(Cl)c4)CC3)cc2N1", "note": "[Compound 67, 7-[4-[4-[1-[(3-Chlorophenyl)methyl]indol-4-yl]piperazin-1-yl]butoxy]-3,4-dihydro-1H-quinolin-2-one]", "values": [
      {"measurement": "α1 [%] affinity test result", "value": 70, "unit": "%"}
    ]}
  ]
}
